The other results are listed elsewhere or left out.
molecular target: OsWRKY34 (Oryza sativa, UniProt Q0JBA9 1-250); assay: protein-binding microarray (RPBM); PBS, 2% BSA, 51.3 ng/ul salmon testes DNA, 50 uM zinc acetate, 200 nM TF, 25 C, 1 h; high values mean tight binding; details: protein: recombinant; tags: N-terminal polyhistidine and DsRed monomer fusion (pET32a); label: CyDye5-dUTP incorporated in the synthesized complementary strand; 3' TTTTT single-stranded linker to array surface; dsDNA, one strand shown
How it was run: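 Transcription factors, each fused N-terminally to a polyhistidine tag and DsRed, were expressed in E. coli BL21-CodonPlus and purified on Ni–NTA. A custom Agilent array was made double-stranded by primer extension with Cy5-dUTP and blocked with 2% BSA. It was incubated with 200 nM protein in PBS, 2% BSA, salmon testes DNA and 50 µM zinc acetate at 25 °C for 1 h, then washed. The binding signal is per-feature fluorescence intensity (arbitrary units) read on an Axon 4000B scanner.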

Amino acid sequences for entries named in this document (tags omitted).
UniProt Q0JBA9, entry or part of it: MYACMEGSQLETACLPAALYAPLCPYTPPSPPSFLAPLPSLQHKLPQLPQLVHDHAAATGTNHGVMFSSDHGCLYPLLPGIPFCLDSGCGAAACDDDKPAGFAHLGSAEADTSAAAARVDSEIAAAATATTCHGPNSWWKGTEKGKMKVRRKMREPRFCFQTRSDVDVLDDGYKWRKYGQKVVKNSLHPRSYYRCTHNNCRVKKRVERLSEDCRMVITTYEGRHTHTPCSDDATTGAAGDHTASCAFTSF

Sequence | binding signal
ACACTACTACCCCTTGTTTTTTACATATCTTTTCCTGCTGCGGAGTCACCTAGTGCAG | 9660 fluorescence intensity (a.u.)
AGGCCACCAAGAACGGCAAGCCCGTCCTCTACCTCGTCTTCGGAGTCACCTAGTGCAG | 8540 fluorescence intensity (a.u.)
GGCAGCATCTCTCACAGTCACTATTAGTGTCTCCGGCTGTCGGAGTCACCTAGTGCAG | 9230 fluorescence intensity (a.u.)
ACCCGCCGTCGCTCTCCAACGCGCTCGTCGCGGCGTTCAACGGAGTCACCTAGTGCAG | 8970 fluorescence intensity (a.u.)
ACAACTCATCACATTTTAGGCAATTTTGTATCTGTATAGTCGGAGTCACCTAGTGCAG | 8850 fluorescence intensity (a.u.)
CATCTCCGGCCTTCACACAAACACTCACACGAACGACTGACGGAGTCACCTAGTGCAG | 9010 fluorescence intensity (a.u.)
AGAACATATATACTGCATCATCGTTTGCTCTTTAACTTATCGGAGTCACCTAGTGCAG | 8080 fluorescence intensity (a.u.)
CACCGTGGGCGCAAGGTATCGAACTTGCTAGCCTCATCCTCGGAGTCACCTAGTGCAG | 8160 fluorescence intensity (a.u.)
GTGATCGATCGATCTCATCCCCGCACGCGCTCCCTTCACCCGGAGTCACCTAGTGCAG | 8560 fluorescence intensity (a.u.)
GTGCTCTTTTTTTGTTTTTGTTTTTGTGTTTTTCTTGAGGCGGAGTCACCTAGTGCAG | 14400 fluorescence intensity (a.u.)
TTTCCATTTTCTTTTCGTCCAACCTTGATAATACATTTTTCGGAGTCACCTAGTGCAG | 10300 fluorescence intensity (a.u.)
GAAAACTACACACACTTTGACACTTGGCACTTAAATACATCGGAGTCACCTAGTGCAG | 8730 fluorescence intensity (a.u.)
TCACTCGCCTCGTCGCCGGAAAATTGCATTCGCGCCGCTCCGGAGTCACCTAGTGCAG | 9410 fluorescence intensity (a.u.)
CCTTTTTTCATTTTCCCCTTTCTTCTTTTTTCCATGCATACGGAGTCACCTAGTGCAG | 8270 fluorescence intensity (a.u.)
CGCCGCGACCTCGTCCACGGTCTTCGCCACCGTCTGCATCCGGAGTCACCTAGTGCAG | 9970 fluorescence intensity (a.u.)
CGGTTTTGTTCATGTCCTTATATTTTCAACGCGGAACAGTCGGAGTCACCTAGTGCAG | 9110 fluorescence intensity (a.u.)
CCTTGTTGGTGTGTTGTGTGAAATATGTTCTATTTATTCACGGAGTCACCTAGTGCAG | 8192 fluorescence intensity (a.u.)
ATACTGTTTCTTCTCTTTCCAACAAGATGTCATATGATTACGGAGTCACCTAGTGCAG | 9320 fluorescence intensity (a.u.)
TTTTCTAGTGGTAAATATCCCATCTGGTCTTAGGTTCTTACGGAGTCACCTAGTGCAG | 8360 fluorescence intensity (a.u.)
TCTCCCGTAACGCCATCCATACCCCGGCATTGCTCTGCCCCGGAGTCACCTAGTGCAG | 8520 fluorescence intensity (a.u.)
TGTGCGTTCATAGGGGTGTGTGTGGGTGTGCGTGTGTGCGCGGAGTCACCTAGTGCAG | 9820 fluorescence intensity (a.u.)

Sequence | binding signal
ACCACTGATATTTTTTCTTTGCTGTTTTCTGTATAGGTCGCGGAGTCACCTAGTGCAG | 9960 fluorescence intensity (a.u.)
ACCCCGCGCGAGCTGCCGGCCTCCGCGCGCTCAGCCACTACGGAGTCACCTAGTGCAG | 8180 fluorescence intensity (a.u.)
ACAATCACCATGTGGTCTCTGTGTAGCTGTTTTTTTCTCTCGGAGTCACCTAGTGCAG | 10100 fluorescence intensity (a.u.)
CAAATTCGAACTTACGTCATCATCATCCATCCACAGACCTCGGAGTCACCTAGTGCAG | 8730 fluorescence intensity (a.u.)
TAACTTGGTGCATTCATATTTTGGGTGTGTTTAGTTCACGCGGAGTCACCTAGTGCAG | 8690 fluorescence intensity (a.u.)
CCGTGTGACCATCTGCTGGGTGGGGTCATCTGCCCAAATACGGAGTCACCTAGTGCAG | 8550 fluorescence intensity (a.u.)
TTTGCGTTTCCGTCTCTCCCTCTCGCGGATTACTGCTCGCCGGAGTCACCTAGTGCAG | 8150 fluorescence intensity (a.u.)
GATTGTATCAGTAGCGACGCACCCTATTTTTTAGCATTTTCGGAGTCACCTAGTGCAG | 9300 fluorescence intensity (a.u.)
CCTTTTGCCTTCGGCCCGGCCCATATATCGCCTCAAATTCCGGAGTCACCTAGTGCAG | 13000 fluorescence intensity (a.u.)
TTTTGTATCGCAGCTACTTGTCCACTGTGTTCTATCAAAGCGGAGTCACCTAGTGCAG | 8280 fluorescence intensity (a.u.)
AAGGAGCAAGTGGAGGAGCAAGGCTTTGTTTTTTGTTTTTCGGAGTCACCTAGTGCAG | 8140 fluorescence intensity (a.u.)
GCAAATCATTATCTCGTCTAAAATTTTCGTTTTTTTAATTCGGAGTCACCTAGTGCAG | 11200 fluorescence intensity (a.u.)
TCGCGCTGTTGAACTCGGCCGGCGAGTCCGCGGCTTCCGTCGGAGTCACCTAGTGCAG | 8640 fluorescence intensity (a.u.)
CGATAGTGGTGCGGAGCGTCGGGTTGGGGATCAGGTCGTTCGGAGTCACCTAGTGCAG | 8220 fluorescence intensity (a.u.)
TTGGGGTATATTTGTTCAACTCTATGCTGATTAATTTTTTCGGAGTCACCTAGTGCAG | 15500 fluorescence intensity (a.u.)
TCCATAGATTCTCCCTGCATTTTGTTCTTGGCAGACTATTCGGAGTCACCTAGTGCAG | 9300 fluorescence intensity (a.u.)
GTATACTGTTCCGTGTTCCCGCGTATGCACTAGTATGTCACGGAGTCACCTAGTGCAG | 13600 fluorescence intensity (a.u.)
GGTAGGGTGGGGATGGGGTGTGTGCTAGCAATCCCGGTGGCGGAGTCACCTAGTGCAG | 11900 fluorescence intensity (a.u.)
ACCCGTCGCCTTTCTATTTCCCAATCCTGCGGCCAATCCGCGGAGTCACCTAGTGCAG | 11000 fluorescence intensity (a.u.)
GGACGAGAACTAAGCAAAGCTCACACGTTTCATTGACGTTCGGAGTCACCTAGTGCAG | 8060 fluorescence intensity (a.u.)
ACCATCTGTCCTTGTACTGCGCCCGTAGCATACCACCCCACGGAGTCACCTAGTGCAG | 11300 fluorescence intensity (a.u.)

Single entries from the results shown:
For binding signal, TTTTGTATCGCAGCTACTTGTCCACTGTGTTCTATCAAAGCGGAGTCACCTAGTGCAG has 8280 fluorescence intensity (a.u.)
For binding signal, ACCCCGCGCGAGCTGCCGGCCTCCGCGCGCTCAGCCACTACGGAGTCACCTAGTGCAG has 8180 fluorescence intensity (a.u.)

Source: PMC7819943, “Rice protein-binding microarrays: a tool to detect cis-acting elements near promoter regions in rice”
